Results taken from paper PMC7819943, “Rice protein-binding microarrays: a tool to detect cis-acting elements near promoter regions in rice”.
The other results are listed elsewhere or left out.

Target: T1, OsSMF1 (Oryza sativa, UniProt Q6ZLB0 1-436)
T1 sequence: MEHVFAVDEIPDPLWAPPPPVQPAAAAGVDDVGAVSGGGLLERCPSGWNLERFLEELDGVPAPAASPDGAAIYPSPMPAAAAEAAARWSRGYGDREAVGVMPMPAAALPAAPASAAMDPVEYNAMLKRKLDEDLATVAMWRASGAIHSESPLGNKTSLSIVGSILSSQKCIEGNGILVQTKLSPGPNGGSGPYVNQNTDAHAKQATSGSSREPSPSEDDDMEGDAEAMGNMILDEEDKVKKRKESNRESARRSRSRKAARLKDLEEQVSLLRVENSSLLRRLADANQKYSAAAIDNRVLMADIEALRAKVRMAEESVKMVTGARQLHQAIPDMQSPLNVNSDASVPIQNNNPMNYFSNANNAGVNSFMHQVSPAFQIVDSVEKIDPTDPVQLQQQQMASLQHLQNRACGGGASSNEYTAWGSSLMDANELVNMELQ
Test: protein-binding microarray (RPBM); PBS, 2% BSA, 51.3 ng/ul salmon testes DNA, 50 uM zinc acetate, 200 nM TF, 25 C, 1 h; high values mean tight binding
Settings: protein: recombinant; tags: N-terminal polyhistidine and DsRed monomer fusion (pET32a); chain copies: 2; label: CyDye5-dUTP incorporated in the synthesized complementary strand; 3' TTTTT single-stranded linker to array surface; dsDNA, one strand shown
Outline: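 Polyhistidine-tagged DsRed fusions of transcription factors, joined at the N-terminus, were expressed in E. coli BL21-CodonPlus and isolated on Ni–NTA. They were incubated at 200 nM for 1 h at 25 °C on a custom Agilent array, double-stranded and BSA-blocked, in PBS with 2% BSA, salmon testes DNA and 50 µM zinc acetate. The binding signal is per-feature fluorescence intensity (arbitrary units) read on an Axon 4000B scanner after washing.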

Question: “CGTAACACAATATATGACGTACATCCATCCACTCAACCCACGGAGTCACCTAGTGCAG” was tested. Which binding signal did it give?
Answer: 3380 fluorescence intensity (a.u.)

Question: Which binding signal does the source give for “AGGTAATGTATCATAAAACTATAGATTTAACACTAAATTTCGGAGTCACCTAGTGCAG” here?
Answer: 53000 fluorescence intensity (a.u.)

Question: How did the binding signal turn out when “AGCAGTACTGTCCACCGTGAGGCCCCACGCGCCATTGTCGCGGAGTCACCTAGTGCAG” was run?
Answer: 3320 fluorescence intensity (a.u.)

Question: “TGATTTCTCCACTGACTCATCCCCATCATCTCCTCTTCTGCGGAGTCACCTAGTGCAG” was tested. Which binding signal did it give?
Answer: 8710 fluorescence intensity (a.u.)

Question: With “CCTCCAGGCCTCCAGCTACTACGCGTCGTGGCTTCTCGCGCGGAGTCACCTAGTGCAG” as the sequence, how does the binding signal read?
Answer: 3420 fluorescence intensity (a.u.)

Question: With “TATATGCTTTTGGAACTTTGTTGCTTTGATTATGTGATGTCGGAGTCACCTAGTGCAG” as the sequence, how does the binding signal read?
Answer: 25500 fluorescence intensity (a.u.)

Question: Which binding signal does the source give for “TCGGCGGCGAACTTCCCCGCCGACGTGCCAGATCTCAAACCGGAGTCACCTAGTGCAG” here?
Answer: 4610 fluorescence intensity (a.u.)

Question: How did the binding signal turn out when “CAACTAGTTGCTGACCAAGCACAGAAGCACTGTAATGAGTCGGAGTCACCTAGTGCAG” was run?
Answer: 6800 fluorescence intensity (a.u.)

Question: “TCATCCCAGCTACAGCCTGACGCAGCTATAAATATCTCGTCGGAGTCACCTAGTGCAG” was tested. Which binding signal did it give?
Answer: 3610 fluorescence intensity (a.u.)

Question: With “GCCGAGCTCTCCTTTCCGCGCTGTAACTGCAATGCAGCGTCGGAGTCACCTAGTGCAG” as the sequence, how does the binding signal read?
Answer: 3300 fluorescence intensity (a.u.)

Question: For “ACCTAGCTACCACTAGTAGCGTCGTCGTCATCGTCGTCGTCGGAGTCACCTAGTGCAG”, which binding signal is on record?
Answer: 3560 fluorescence intensity (a.u.)

Question: For “ATGGTTTAGAGGGTTGTTGTCAGGATGACTAGCATTGAGTCGGAGTCACCTAGTGCAG”, which binding signal is on record?
Answer: 3420 fluorescence intensity (a.u.)

Question: With “GTTGTTCGCACATGTTTAGTGCCACGTTACTAGTTTAATTCGGAGTCACCTAGTGCAG” as the sequence, how does the binding signal read?
Answer: 3860 fluorescence intensity (a.u.)

Question: Which binding signal does the source give for “TCCCCGATGAGTGGGTGTTTTAATTGCTCCCTGTTGATATCGGAGTCACCTAGTGCAG” here?
Answer: 3210 fluorescence intensity (a.u.)

Question: For “TCACATGATGTCTTGGATGTTGTGTAGAAATTCTCTTTCCCGGAGTCACCTAGTGCAG”, which binding signal is on record?
Answer: 3560 fluorescence intensity (a.u.)

Question: How did the binding signal turn out when “TAGTCTCAGAAACAGGACGTGTGTAATCTGGATTCTGGACCGGAGTCACCTAGTGCAG” was run?
Answer: 4450 fluorescence intensity (a.u.)

Question: How did the binding signal turn out when “ATGGATGGGAGGTCAATCTTGATGGGCCGTTATGAGGTTGCGGAGTCACCTAGTGCAG” was run?
Answer: 35300 fluorescence intensity (a.u.)

Question: How did the binding signal turn out when “CCTCGTCGCCGCGTCACGGCGTCAGCTCGCCGCTCTAGGGCGGAGTCACCTAGTGCAG” was run?
Answer: 4820 fluorescence intensity (a.u.)

Question: For “TGTGGTGGTGCTGTACACGTTGTGTGTGTGTGTTCGATGTCGGAGTCACCTAGTGCAG”, which binding signal is on record?
Answer: 5140 fluorescence intensity (a.u.)

Question: “AGGGAGTTTGCGGACACGGCGGCGGCACCGCGGATCTGTTCGGAGTCACCTAGTGCAG” was tested. Which binding signal did it give?
Answer: 37000 fluorescence intensity (a.u.)

Question: Which binding signal does the source give for “AGACCCTGTCCTCCTCCGTCCACGCAGACGCCGGCCTCAACGGAGTCACCTAGTGCAG” here?
Answer: 3280 fluorescence intensity (a.u.)

Question: How did the binding signal turn out when “CTCTGGCGATGTGGCGTCTGGTCAAATTCATTGTCTCTACCGGAGTCACCTAGTGCAG” was run?
Answer: 47900 fluorescence intensity (a.u.)

Question: “AAGTTGGTACTCCTGTATGAATCATCAGTCTGAACTTGACCGGAGTCACCTAGTGCAG” was tested. Which binding signal did it give?
Answer: 4620 fluorescence intensity (a.u.)

Question: How did the binding signal turn out when “ATTCCGGCTCATGTTTTACGCCACGCAGTCCTCCTCCTTCCGGAGTCACCTAGTGCAG” was run?
Answer: 5080 fluorescence intensity (a.u.)

Question: “GCCTTGCATCCGCGCTACAGTGGGTCATCGTCTTCACTGCCGGAGTCACCTAGTGCAG” was tested. Which binding signal did it give?
Answer: 3220 fluorescence intensity (a.u.)

Question: For “TGCGTGCGAGTTGGCTGACTCGATCTCGATTACTGCTCACCGGAGTCACCTAGTGCAG”, which binding signal is on record?
Answer: 5600 fluorescence intensity (a.u.)

Question: Which binding signal does the source give for “TGCCATCCTGACCCACATGTCATTGACTAATATGAGTCCTCGGAGTCACCTAGTGCAG” here?
Answer: 3580 fluorescence intensity (a.u.)

Question: Which binding signal does the source give for “GGCGTTCAGCAACCCGTGCATCATCCACGGTGTGTGCGGCCGGAGTCACCTAGTGCAG” here?
Answer: 3590 fluorescence intensity (a.u.)

Question: For “TTATTTGTCCTGCTGCGTGCCGACGATGTTGTTGACGTGTCGGAGTCACCTAGTGCAG”, which binding signal is on record?
Answer: 13700 fluorescence intensity (a.u.)

Question: How did the binding signal turn out when “ATTCGTAGTATTAGAATGTGTCACATCCAATATTAGGTTGCGGAGTCACCTAGTGCAG” was run?
Answer: 3440 fluorescence intensity (a.u.)

Question: Which binding signal does the source give for “AACTCGGTGGTGACCACGCGTCCACATCTCTCATCTTTCTCGGAGTCACCTAGTGCAG” here?
Answer: 3720 fluorescence intensity (a.u.)

Question: For “GGTCACTCATCACAGTCACAGATCGACGGCGACACAGCTGCGGAGTCACCTAGTGCAG”, which binding signal is on record?
Answer: 4930 fluorescence intensity (a.u.)

Question: With “AACCAACCAACCACGTCGATCGCTCGCAGTCGCCGCCGCGCGGAGTCACCTAGTGCAG” as the sequence, how does the binding signal read?
Answer: 3840 fluorescence intensity (a.u.)

Question: Which binding signal does the source give for “CACGACTCACGACCGCGTCGTCGTCACCAACTCCGGCTACCGGAGTCACCTAGTGCAG” here?
Answer: 3990 fluorescence intensity (a.u.)

Question: How did the binding signal turn out when “GTAATCATGTACTAGTACCAAATACTGACACATTACCTTCCGGAGTCACCTAGTGCAG” was run?
Answer: 4770 fluorescence intensity (a.u.)

Question: With “GTTAATCTCATTTAGTTACTGATGACGCCCTGTTGTTCGACGGAGTCACCTAGTGCAG” as the sequence, how does the binding signal read?
Answer: 4960 fluorescence intensity (a.u.)

Question: “AATTTCATCCATATATTCGTAATCGTGTCACTAAAATTTTCGGAGTCACCTAGTGCAG” was tested. Which binding signal did it give?
Answer: 3760 fluorescence intensity (a.u.)

Question: Which binding signal does the source give for “CACTTCCTACTTTCATTTAGTGCTGACTTGTTGCAACTTTCGGAGTCACCTAGTGCAG” here?
Answer: 4030 fluorescence intensity (a.u.)

Question: “GTTGCTCCAACTAGTTGTATGACCTGTCACTCGTGGAGAGCGGAGTCACCTAGTGCAG” was tested. Which binding signal did it give?
Answer: 10800 fluorescence intensity (a.u.)

Question: How did the binding signal turn out when “CACATCCTCAGATATCTTACTTCATCCAATATCCTGTCATCGGAGTCACCTAGTGCAG” was run?
Answer: 4410 fluorescence intensity (a.u.)

Question: “CTAGCGCGAGCGCGCCGCCTCCACCGCCGCCCCAGCGTGCCGGAGTCACCTAGTGCAG” was tested. Which binding signal did it give?
Answer: 3200 fluorescence intensity (a.u.)

Question: How did the binding signal turn out when “CGGCCGGAATGGTAACGCAGGCAGAACACGCCGCGCGTACCGGAGTCACCTAGTGCAG” was run?
Answer: 3490 fluorescence intensity (a.u.)
